The text below walks through data of article PMC3282696 (PLoS ONE, 2012).

The chains behind the UniProt entries cited, without tags or fusion partners.
UniProt P01375, whole entry: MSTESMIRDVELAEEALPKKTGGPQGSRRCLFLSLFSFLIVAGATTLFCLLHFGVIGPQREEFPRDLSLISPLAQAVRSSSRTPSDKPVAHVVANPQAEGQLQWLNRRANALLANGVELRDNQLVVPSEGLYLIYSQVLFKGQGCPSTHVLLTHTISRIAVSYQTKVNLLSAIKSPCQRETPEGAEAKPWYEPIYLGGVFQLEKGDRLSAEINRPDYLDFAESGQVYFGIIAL

For this test, the target named is tumor necrosis factor (TNF)-alpha (human, UniProt P01375 1-233, Non-covalent homotrimer. Limits are not printed: mature soluble form taken from the SUMO-fusion production; the calculated complex mass of 62.0 kDa less 9.9 kDa for 10F gives about 17.4 kDa per subuni). The test is described as follows: ITC; 10F (135 µM) injected into TNF-alpha (35.6 µM, per monomer), 25°C, PBS, 0.5 mM EDTA pH 7.4, 0.05% (v/v) Tween-20; single-site binding model. The conditions noted are these: both partners purified. A general note: Isothermal titration calorimetry measures the heat released or taken up as one component is titrated into another.

B1: ubiquitin variant 10F (designed binder)
chain: MQIFVFTYTGKTITLEVEPSDTIENVKARIQDKEGIPPDQQALEWAGKQLEDGRTLSNIQKESTLPLFLRLRGG
notes: selected by ribosome display; Subcloned without Flag-tag into a modified pET-20b vector; Printed theoretical mass 9.9 kDa; source: E. coli BL21(DE3), purified (HisTrap IMAC, Superdex 75 SEC); 15N-labeled for NMR
What is called Kd is a measure of binding affinity in units of concentration. One may read the stoichiometry N as the number of molecules, sites or subunits per partner or assembly. Consider B1, for which the Kd was 180 ± 50 nM, the dH is -13.7 ± 0.598 kcal/mol and the “stoichiometry N” value is 0.35 ± 0.04.
